The assay can be described thus: qHTS Assay to Find Inhibitors of Chronic Active B-Cell Receptor Signaling. The settings on record: ABC-DLBCL IkBa-CBG/CBR reporter, luminescence ratio (green luciferase fused to IkBa over red control in TMD8 lymphoma cells), 4 h. The gist of the method:
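Compounds up to 46 uM were incubated four hours with TMD8 cells whose green CBG68 luciferase is fused to IkappaBalpha; red CBR luminescence normalised the signal, and concentration-effect curves were fitted to fusion, red and ratio data.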

Where [1] appears, read: measured here: CBR red luminescence, cell number.
The mark [2] stands for this setting: measured here: IkBa-CBG green luminescence.

The other results are listed elsewhere or left out. The main result of the screen is listed elsewhere. These columns were measured beside it and carry no call. The list favours compounds with an active or inconclusive main result. The note in brackets gives the kind of curve behind each potency; many fits are weak.

These results are taken from PubChem BioAssay AID493014 (National Center for Advancing Translational Sciences (NCATS), 2011).

For the compound `Cc1oc2cc(Br)c(O)c(Br)c2c1-c1ccccc1`, the AC50 under setting [1] was 15.8 µM [rising, single point].

On to `Cc1nc(-c2ccc(NC(=O)c3ccc(Br)o3)cc2)cs1`, for which, under setting [1], the AC50 was 20 µM [falling, single point].

As to `O=C(Nc1ccc(O)c(C(=O)O)c1)Oc1ccccc1`, the AC50 under setting [1] was 11.2 µM [falling, partial curve].

Take `COc1ccc(N(CC(=O)Nc2cccc(C(C)=O)c2)S(=O)(=O)c2ccc(NC(C)=O)cc2)cc1`: under setting [1], the AC50 was 11.2 µM [rising, partial curve, poor fit].

For `CCOC(=O)C(NC(=O)c1ccccc1)(N1CCOCC1)C(F)(F)F` (centres undefined), under setting [1], the AC50 was 12.6 µM [rising, single point].

On to `COc1cccc(NC(=O)CSc2nncn2-c2ccccn2)c1`, for which the AC50 under setting [1] was 15.8 µM [falling, single point].

On to `CCOC(=O)Cc1nnc(NC(=O)CSc2nnc3c(n2)[nH]c2ccccc23)s1`, for which the AC50 under setting [1] is 10 µM [falling, partial curve].

`COc1ccccc1NC(=O)C(=O)NCC(c1ccco1)N1CCc2ccccc2C1` (centres undefined): the AC50 under setting [1] was 4.11 µM [falling, full curve].

With `C=CCc1cc(OC)ccc1OCC(O)CN1CCN(c2ccc(OC)cc2)CC1` (centres undefined), the AC50 under setting [1] is 5.8 µM [falling, single point].

Regarding `CC(C)(C)Nc1c(N)c(=O)oc2ccccc12`, the AC50 under setting [1] is 11.6 µM [falling, partial curve, poor fit].

Take `C/C=C/c1ccc(OCCCn2cncn2)c(OC)c1`: the AC50 under setting [1] was 3.26 µM [rising, partial curve, poor fit].

For `C/C=N/NC(=O)c1cc(Br)ccc1O`, the AC50 under setting [1] was 0.82 µM [falling, full curve].

For `C=C[C@](C)(CC[C@@]1(C)C(C)CC(OC2OC(C)C(OC3OC(COC(C)=O)C(O)C(O)C3O)C(O)C2O)[C@@]2(C)C(C)=CCCC12)OC1OC(C)C(O[C@@H]2O[C@@H](C)C(O)C(O)[C@H]2O)C(O)C1O` (some centres undefined), the AC50 under setting [1] was 20.6 µM [rising, single point].

On to `COc1cccc(NC(=O)c2sc3nc(N4CCOCC4)c4c(c3c2N)CCCC4)c1`, for which the AC50 under setting [1] is 14.1 µM [falling, partial curve].

For the compound `COc1ccc(/C=C2\CCC(C3CCCC3)C2=O)c(OC)c1OC` (centres undefined), the AC50 under setting [1] was 2.24 µM [rising, full curve, poor fit].

Consider `Cc1ccc(NC(=O)NC(=O)CN2C(=O)NC3(CCc4ccccc43)C2=O)c(C)c1` (centres undefined), for which the concentration at half-maximal activity (AC50) under setting [1] is 8.2 µM [falling, partial curve, poor fit].

As for `CCN(CC)CCCNC(=O)CNC(=O)c1nn(-c2ccc(OC)cc2)c(=O)c2ccccc12`, under setting [1], the AC50 was 12.6 µM [falling, partial curve, poor fit].

On to `O=C(Nc1cccc(S(=O)(=O)N2CCCCCC2)c1)c1ccc2c(c1)OCO2`, for which, under setting [1], the AC50 was 25.9 µM [falling, single point].

As for `CCCc1nnc(NC(=O)CCC(=O)N2CCN(CCOc3ccc(C)cc3)CC2)s1`, the AC50 under setting [1] is 1.3 µM [falling, full curve].

`COc1ccc(-c2nc3ccccc3c(C(=O)Nc3ccc(S(=O)(=O)Nc4cc(C)on4)cc3)c2C)cc1`: the AC50 under setting [1] is 3.55 µM [falling, full curve].

For `CCN(CC)S(=O)(=O)c1ccc(Br)c(OC)c1`, the AC50 under setting [1] was 29.1 µM [falling, single point].

With `Cc1ccc(C)c(NC(=O)CCN2C(=O)[C@@H]3Cc4ccccc4CN3C2=O)c1`, the AC50 under setting [1] was 2.82 µM [rising, single point].

As to `O=C(Nc1nc2ccccc2[nH]1)c1ccc(Cl)c([N+](=O)[O-])c1`, the AC50 under setting [1] was 14.1 µM [falling, partial curve, poor fit].

On to `N#Cc1c(-c2cccs2)nc(SCc2ccc(Cl)cc2)[nH]c1=O`, for which the AC50 under setting [1] is 35.5 µM [falling, single point].

Consider `CC(=O)CCC(=O)OCC(=O)Nc1ccc(SC(F)F)cc1`, for which the AC50 under setting [1] was 3.55 µM [falling, single point].

For `COc1ccc(-c2nc(SC(C)C(=O)NC3CC3)n[nH]2)cc1` (centres undefined), the AC50 under setting [1] is 18.4 µM [falling, partial curve].

On to `C[C@H](CO)N1C[C@H](C)[C@@H](CN(C)Cc2ccccc2)Oc2c(NC(=O)C3CCCCC3)cccc2C1=O`, for which the AC50 under setting [1] is 18.4 µM [falling, single point].

Take `CCOc1cccc(-c2c(C(=O)N/N=C/c3ccncc3)nnn2-c2nonc2N)c1`: the AC50 under setting [1] was 28.2 µM [falling, single point].

As for `CC(C)c1nnc(NC(=O)C2CCCN2C(=O)Nc2ccccc2)s1` (centres undefined), the AC50 under setting [1] is 3.98 µM [rising, partial curve, poor fit].

For `CS(=O)(=O)Oc1ccc2c(c1)O/C(=C\C=C\c1ccccc1)C2=O`, the AC50 under setting [1] was 0.178 µM [falling, full curve, poor fit].

With `COc1ccc(N)cc1-n1c(C)ccc1C`, the AC50 under setting [1] is 35.5 µM [rising, partial curve, poor fit].

As to `Cc1cccc2sc(NC(=O)c3ccc(NS(=O)(=O)c4cccs4)cc3)nc12`, under setting [1], the half-maximal activity concentration (AC50) was 9.2 µM [falling, partial curve].

Take `Cc1ccc(/C=C/C(=O)NC2=NCCS2)cc1`: the half-maximal activity concentration (AC50) under setting [1] is 14.6 µM [falling, single point].

With `CCn1c(SCC(=O)NC(=O)NCc2ccco2)nc2sc(C)c(C)c2c1=O`, the AC50 under setting [2] was 0.651 µM [falling, full curve, poor fit].

In the case of `COc1ccc(CCC(C)NCC2CCCCC2)cc1` (centres undefined), under setting [1], the AC50 was 5.17 µM [rising, full curve].

Take `Cc1ccc(C(C)NC(=S)NCc2ccc(F)cc2)c(C)c1` (centres undefined): under setting [1], the AC50 is 35.5 µM [falling, single point].

On to `O=c1ccc2ccc(Oc3ccc([N+](=O)[O-])cc3[N+](=O)[O-])cc2o1`, for which the half-maximal activity concentration (AC50) is 20.6 µM [falling, single point] under setting [1] and 29.1 µM [falling, partial curve, poor fit] under setting [2].

For `Cc1ccc(-c2cc(C(=O)Nc3cc(C)on3)c3ccccc3n2)c(C)c1`, the AC50 under setting [1] is 2.59 µM [falling, full curve].

With `CCC(C)n1c(SCc2ccc([N+](=O)[O-])cc2)nc2ccsc2c1=O` (centres undefined), under setting [1], the AC50 is 25.9 µM [rising, single point].

For `Cc1cc(C)n(CC(C)NC(=O)c2cc(COc3ccc(F)c(F)c3)on2)n1` (centres undefined), the AC50 under setting [1] was 3.55 µM [falling, partial curve, poor fit].

In the case of `Cc1ccc(Sc2cc(C(=O)NCCCN(C)C)c3ccccc3n2)cc1`, under setting [1], the AC50 is 35.5 µM [falling, single point].

`Cc1cc(C)cc(NS(=O)(=O)c2ccc3[nH]cc(C(=O)NCc4ccco4)c(=O)c3c2)c1`: the AC50 under setting [1] is 29.1 µM [falling, single point].

Turning to `CCSc1nnc(NC(=O)c2cc(-c3ccccc3O)n[nH]2)s1`, the AC50 under setting [1] was 1.26 µM [falling, full curve, poor fit].

`Cc1nn(-c2ccccc2)c(C)c1NC(=O)COc1ccc2ccccc2c1`: the AC50 under setting [1] is 31.6 µM [falling, single point].

`O=C(O)c1ccc(CNC(=O)c2ccc(C(F)(F)F)cc2)cc1`: the AC50 under setting [1] was 35.5 µM [falling, single point].

For `Cc1nc2ccc(NC(=O)c3cccc(S(=O)(=O)N4CC(C)OC(C)C4)c3)cc2s1` (centres undefined), the AC50 under setting [1] is 4.11 µM [rising, single point].

For `CCOc1ccccc1/C=N/Nc1cc(C)nc2ccc(C)cc12`, the AC50 under setting [1] was 0.1 µM [falling, full curve, poor fit].

As to `Cc1ccnc(NC(=O)c2cc3ccccc3o2)c1`, the AC50 under setting [1] was 2.31 µM [falling, full curve].

Regarding `COc1ccc(OCC(=O)Nc2cccc(C(=O)Nc3ccccc3C(=O)O)c2)cc1`, under setting [1], the AC50 was 25.9 µM [falling, partial curve, poor fit].

As for `Cc1ccc(/C=N/N2CCN(c3ccccn3)CC2)o1`, the AC50 under setting [1] is 12.6 µM [falling, single point].

Regarding `O=C(CCc1ccccc1)NNC(=O)COc1ccc([N+](=O)[O-])cc1`, under setting [1], the AC50 is 0.0891 µM [rising, full curve, poor fit].

Take `Cc1cc(/C=C(\C#N)C(=O)OCC(=O)Nc2ccc(OC(F)F)cc2)c(C)n1CC(C)C`: the AC50 under setting [1] was 1.46 µM [rising, full curve, poor fit].

With `CN(C)CC(CCCCC(CN(C)C)C(=O)c1ccccc1)C(=O)c1ccccc1` (centres undefined), the AC50 under setting [1] was 12.6 µM [falling, partial curve, poor fit].

As for `CCc1ccc(S(=O)(=O)c2n[nH]n3c2nc(=O)c2ccccc23)cc1`, under setting [2], the AC50 was 18.4 µM [rising, partial curve, poor fit].

Regarding `COc1ccc(-c2ccc(C(c3c(C)[nH][nH]c3=O)c3c(C)[nH][nH]c3=O)o2)c([N+](=O)[O-])c1`, the AC50 under setting [1] is 6.31 µM [falling, partial curve].

On to `COC(=O)c1ccc(C2/C(=C(/O)c3ccc(OC)cc3)C(=O)C(=O)N2c2cc(C)on2)cc1` (centres undefined), for which the AC50 under setting [1] was 11.2 µM [falling, partial curve].

Take `CCOC(=O)N1CCN(CC(=O)Nc2c(C(=O)OC)[nH]c3ccccc23)CC1`: the AC50 under setting [1] was 20 µM [rising, partial curve, poor fit].

With `NC(=O)N1CCC2(CC1)NC(=O)N(c1ccccc1)N2`, the AC50 under setting [1] is 12.6 µM [rising, single point].

`CC(=O)Nc1ccc(OCC(O)Cn2nc(C)c(C)c2C)cc1` (centres undefined): the AC50 under setting [1] is 4.47 µM [falling, single point].

Consider `CN(C)C(=O)c1nc2ccccc2s1`, for which the AC50 under setting [1] is 29.1 µM [falling, single point].

For the compound `Cn1c(C2CCCCC2)nc2ccccc21`, the AC50 under setting [1] was 15.8 µM [rising, single point].

In the case of `Nc1ccccc1Nc1cccc(C(F)(F)F)c1`, the AC50 under setting [1] is 20 µM [falling, partial curve].

On to `O=C(Nc1cccnc1)c1ccc(-c2ccc(Cl)cc2)o1`, for which, under setting [1], the AC50 is 12.6 µM [falling, single point].
